Experimental data: the supplement of paper PMC3334620
In all, about 33,000 sequences were measured (“E-score (-0.5 to 0.5)”: median about -0.015, highest 2% from about 0.3 on). The list shows a part of the results.

target: T1, Abf1 (UniProt P14164); experiment: PBM E-score (8-mer binding enrichment) (E-score (-0.5 to 0.5)); higher = stronger / more preferred TF binding; settings: protein concentration: 200 nM; construct: GST-full length
T1 sequence: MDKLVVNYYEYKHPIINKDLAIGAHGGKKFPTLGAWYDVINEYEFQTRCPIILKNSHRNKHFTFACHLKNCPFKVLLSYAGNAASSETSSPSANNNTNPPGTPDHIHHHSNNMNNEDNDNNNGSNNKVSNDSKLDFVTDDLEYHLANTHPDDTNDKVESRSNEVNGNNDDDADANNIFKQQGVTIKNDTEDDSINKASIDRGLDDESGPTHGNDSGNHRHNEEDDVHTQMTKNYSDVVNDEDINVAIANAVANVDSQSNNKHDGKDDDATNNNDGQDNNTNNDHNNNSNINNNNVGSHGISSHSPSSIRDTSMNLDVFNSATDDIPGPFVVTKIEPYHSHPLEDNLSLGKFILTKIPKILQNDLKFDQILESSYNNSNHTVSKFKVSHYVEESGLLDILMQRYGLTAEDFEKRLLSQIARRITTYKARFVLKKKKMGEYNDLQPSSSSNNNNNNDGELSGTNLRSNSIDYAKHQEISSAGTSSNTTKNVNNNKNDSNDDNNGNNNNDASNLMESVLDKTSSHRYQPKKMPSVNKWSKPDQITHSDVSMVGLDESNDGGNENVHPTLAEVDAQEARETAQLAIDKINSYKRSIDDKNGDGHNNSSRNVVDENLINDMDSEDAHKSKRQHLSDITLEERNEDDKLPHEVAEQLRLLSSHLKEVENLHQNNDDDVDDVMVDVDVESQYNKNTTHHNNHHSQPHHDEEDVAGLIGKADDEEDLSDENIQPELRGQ
How it was run: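 Masliner-normalised scans of fluorescent anti-GST signal were the basis for scoring. That signal came from GST-tagged yeast transcription factors applied at about 100-200 nM to double-stranded universal all-10-mer Agilent arrays on fresh or once-stripped slides. Each ungapped eight-base word, pooled with its reverse complement, received an E-score from the Universal PBM Analysis Suite.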

In order of rising “PBM E-score” value:
1. ATGGCCTG  -0.399
2. CCCCGCTC  -0.347
3. GGCCAAGA  -0.331
4. ACCCCCAC  -0.323
5. GGGGCTAC  -0.287
6. CCGGGAGG  -0.279
7. GCACTCCA  -0.271
8. CCGCCAGC  -0.27
9. CTCGCCTC  -0.268
10. AGAGACTG  -0.262
11. ACCGCCCC  -0.253
12. GGGCGCAC  -0.245
13. AGAGTCAT  -0.242
14. GGCCCTTA  -0.233
15. CAGGGGAG  -0.214
16. ACAGATGG  -0.205
17. GCTGGGGA  -0.203
18. GGCTGGAA  -0.197
19. CAGAAGGC  -0.197
20. CTGACAGC  -0.191
21. AGCCCAAT  -0.177
22. AGGGGGAT  -0.171
23. AACCTCGG  -0.17
24. CGGACATC  -0.169
25. CCCTGCAG  -0.165
26. CTGTTGGA  -0.157
27. GCCGAGAC  -0.156
28. CCGGCGAC  -0.156
29. ATTGACGC  -0.156
30. CTTAGAAA  -0.151
31. CTGCTCGC  -0.15
32. CACTCCGC  -0.149
33. CTCGATGC  -0.143
34. CAGAGACC  -0.141
35. CTCCCTAC  -0.14
36. AAGGACCA  -0.137
37. TAGCAGGA  -0.124
38. TGGTACCA  -0.123
39. GATAGGAC  -0.123
40. TAGCCTGA  -0.119
41. CCAAAGTC  -0.116
42. CTCTTCGC  -0.116
43. GGGCGAAA  -0.115
44. AGGGTTCC  -0.115
45. CAGTATCC  -0.112
46. CCACTGGG  -0.107
47. GGAGACTA  -0.107
48. AAAGAGCC  -0.106
49. GATATGGC  -0.105
50. GTCGGCAC  -0.103
51. GCATTACA  -0.102
52. CCTACTAG  -0.101
53. ATGTGTCC  -0.101
54. CGGGATCA  -0.1
55. GGAATGCA  -0.1
56. CTGGATAC  -0.0995
57. CTCATAGC  -0.0943
58. ACCGAGCA  -0.0941
59. TAGCTGAA  -0.089
60. CGGTTACG  -0.0882
61. CTTTGCTC  -0.0823
62. GGATAGAC  -0.0749
63. AGTTAGAT  -0.0731
64. GGGTTAGA  -0.0709
65. AGTGGATC  -0.0658
66. AGCACACG  -0.0648
67. AGCGGGAT  -0.0541
68. CGTGAGAG  -0.0528
69. CCACAGAA  -0.0526
70. AAGAGTGT  -0.052
71. CTGAAGCA  -0.0488
72. GCTATATA  -0.0469
73. CTACCCAG  -0.0466
74. ATAACAAT  -0.0401
75. CAGCAATC  -0.0343
76. CAGGATCA  -0.0317
77. GGTCAAGA  -0.0306
78. GAAAACGC  -0.0304
79. CGCCGAAA  -0.0299
80. ACTCGCCA  -0.0285
81. CGCGGACC  -0.0283
82. AAGTTCTG  -0.0278
83. CAGGGTAA  -0.0268
84. ACTCTGGC  -0.0261
85. CGCAAGAG  -0.0232
86. TAAGGGGA  -0.023
87. CGTTTTGC  -0.0175
88. AGACAGAA  -0.0173
89. ATGGCTTG  -0.0149
90. CGGTATTA  -0.0111
91. AGGCAATC  -0.0105
92. CCGCATCC  -0.0062
93. GCAACTCA  -0.00567
94. ACCTACAT  -0.00514
95. AGCGTCAA  -0.00287
96. ACGAGTTG  -0.00153
97. TAATCCTA  -0.00132
98. ACTTTTCA  0.00097
99. ATTCTGCC  0.00271
100. CAGACAGA  0.00458
101. GGTACATA  0.0058
102. CTCGCACA  0.00582
103. CATCCCAA  0.00786
104. ACTTGCCA  0.0094
105. ACTAGAAC  0.0148
106. GGAAGAGA  0.0148
107. ATATGGCG  0.0184
108. AATCGCAC  0.0211
109. CCTTTGTA  0.0245
110. ATTATAGA  0.0267
111. ACACGTGT  0.0282
112. AATAGAAG  0.0303
113. GAACCGAC  0.0311
114. ATTGGGTA  0.0312
115. CATATCTC  0.0355
116. CAAGAAGA  0.0362
117. AAAACCCG  0.0426
118. GGTTAGAC  0.0445
119. TATGGAAA  0.0575
120. GGCTACTA  0.0597
121. ATCGCTTG  0.0683
122. CGTGGTCA  0.075
123. ATTTCATG  0.0812
124. AAAATAAC  0.0816
125. ATGAGATG  0.0829
126. ACAATAAC  0.0884
127. ACAAAAGG  0.0916
128. ACGGTCCA  0.0955
129. ATGGTCGA  0.0957
130. ACTTTCAG  0.0983
131. AACTAAGT  0.0996
132. GAACGTCA  0.102
133. CGCGCGGA  0.103
134. ACGCGTTA  0.105
135. ATGTGAGG  0.105
136. ACGGTACT  0.114
137. CACTTAGG  0.114
138. TACACTAA  0.114
139. CAAAAACC  0.116
140. ATCATCGG  0.116
141. ATTGAGTA  0.117
142. CTATTCAC  0.121
143. CGATCAAC  0.129
144. GCGCGTTA  0.131
145. CGGATAAC  0.136
146. AAACACAC  0.14
147. ATATCGCA  0.144
148. GAATTTTA  0.15
149. AAGCGATC  0.156
150. GATCGATA  0.163
151. ACTTCGAA  0.169
152. GGTACGAC  0.185
153. ACGAATGC  0.185
154. CACGAACC  0.185
155. ATTTATTC  0.188
156. AATATTAC  0.196
157. CATCAACG  0.208
158. CACGTGAA  0.213
159. ACGATCAT  0.222
160. AACATGAT  0.222
161. ACGACATG  0.225
162. CCTTCACG  0.225
163. ACATCACG  0.231
164. AACACGAT  0.247
165. ACGTAATA  0.252
166. AGGATGAC  0.258
167. ATAAAATG  0.272
168. CGAAATGA  0.273
169. AAGTACGT  0.275
170. GTTTATCA  0.304
171. ATCACCGC  0.311
172. ACATCACT  0.415
